## Melanoma cell counts after drug treatment

Values as published with doi:10.1371/journal.pone.0140310, rounded.

Every entry is a combination with enzastaurin at 4000 nM: Cn1cc(C2=C(c3cn(C4CCN(Cc5ccccn5)CC4)c4ccccc34)C(=O)NC2=O)c2ccccc21

Drugs:
BMS-536924 (1000 nM): Cc1cc(N2CCOCC2)cc2[nH]c(-c3c(NC[C@@H](O)c4cccc(Cl)c4)cc[nH]c3=O)nc12
darinaparsin (2000 nM): C[As](C)SC[C@H](NC(=O)CC[C@H](N)C(=O)O)C(=O)NCC(=O)O
SNS-314 (4 nM): O=C(Nc1cccc(Cl)c1)Nc1ncc(CCNc2ncnc3ccsc23)s1
pioglitazone (10000 nM): CCc1ccc(CCOc2ccc(CC3SC(=O)NC3=O)cc2)nc1 (stereo not shown)
SNS-032 (50 nM): CC(C)(C)c1cnc(CSc2cnc(NC(=O)C3CCNCC3)s2)o1
cediranib (2000 nM): COc1cc2c(Oc3ccc4[nH]c(C)cc4c3F)ncnc2cc1OCCCN1CCCC1
LFM-A13 (10000 nM): C/C(O)=C(\C#N)C(=O)Nc1cc(Br)ccc1Br
GSK0660 (5000 nM): COC(=O)c1sccc1S(=O)(=O)Nc1ccc(Nc2ccccc2)cc1OC
CHIR-265 (400 nM): Cn1c(Nc2ccc(C(F)(F)F)cc2)nc2cc(Oc3ccnc(-c4ncc(C(F)(F)F)[nH]4)c3)ccc21
tanespimycin (10 nM): C=CCNC1=C2C[C@@H](C)C[C@H](OC)[C@H](O)[C@@H](C)/C=C(\C)[C@H](OC(N)=O)[C@@H](OC)/C=C\C=C(/C)C(=O)NC(=CC1=O)C2=O
AS-252424 (5000 nM): O=C1NC(=O)/C(=C/c2ccc(-c3ccc(F)cc3O)o2)S1
selumetinib (75 nM): Cn1cnc2c(F)c(Nc3ccc(Br)cc3Cl)c(C(=O)NOCCO)cc21
embelin (6000 nM): CCCCCCCCCCCC1=C(O)C(=O)C=C(O)C1=O
temozolomide (10000 nM): Cn1nnc2c(C(N)=O)ncn2c1=O
tozasertib (30 nM): Cc1cc(Nc2cc(N3CCN(C)CC3)nc(Sc3ccc(NC(=O)C4CC4)cc3)n2)n[nH]1
ENMD-2076 (200 nM): Cc1cc(Nc2cc(N3CCN(C)CC3)nc(/C=C/c3ccccc3)n2)n[nH]1
bortezomib (5 nM): CC(C)C[C@H](NC(=O)[C@H](Cc1ccccc1)NC(=O)c1cnccn1)B(O)O
FH535 (5000 nM): Cc1cc([N+](=O)[O-])ccc1NS(=O)(=O)c1cc(Cl)ccc1Cl
BI-D1870 (1000 nM): CC(C)CCN1c2nc(Nc3cc(F)c(O)c(F)c3)ncc2N(C)C(=O)C1C (stereo not shown)
GSK650394 (800 nM): O=C(O)c1ccc(-c2c[nH]c3ncc(-c4ccccc4)cc23)cc1C1CCCC1
stibogluconate (10000 nM): O=C(O)[C@@H]1[O][Sb](=[O])([O][Sb]2(=[O])[O][C@H]([C@H](O)CO)[C@H](O)[C@H](C(=O)O)[O]2)[O][C@H]([C@H](O)CO)[C@@H]1O (stereo partly shown)

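Human melanoma cell lines in 1,536-well plates were treated with two drugs together for 72 h, then fixed, stained and imaged. The read-out is cell count (nuclei) in % of the DMSO control; lower values mean stronger growth inhibition or killing. Concentrations were fixed for each drug; these are the higher of two levels. No replicate spread is given; individual values may be noisy.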
An unselected part of the screen is shown.

- AS-252424 | WM451Lu: 84.3; COLO 829: 93.7; COLO 800: 87.5; C32: 93.9; COLO 792: 71.3; WM3619: 93.8
- tanespimycin | WM451Lu: 46.3; COLO 829: 77.7; COLO 800: 135; C32: 40.4; COLO 792: 59.2; WM3619: 38.5
- cediranib | WM451Lu: 78.1; COLO 829: 76.0; COLO 800: 54.6; C32: 90.7; COLO 792: 69.9; WM3619: 97.8
- temozolomide | WM451Lu: 76.1; COLO 829: 67.6; COLO 800: 124; C32: 120; COLO 792: 81.9; WM3619: 90.2
- BMS-536924 | WM451Lu: 97.8; COLO 829: 84.8; COLO 800: 21.0; C32: 88.0; COLO 792: 69.3; WM3619: 102
- LFM-A13 | WM451Lu: 96.1; COLO 829: 71.5; COLO 800: 85.1; C32: 99.2; COLO 792: 78.0; WM3619: 84.0
- FH535 | WM451Lu: 92.6; COLO 829: 93.1; COLO 800: 116; C32: 101; COLO 792: 74.2; WM3619: 88.7
- SNS-314 | WM451Lu: 41.0; COLO 829: 71.7; COLO 800: 31.1; C32: 79.1; COLO 792: 42.9; WM3619: 97.6
- darinaparsin | WM451Lu: 75.4; COLO 829: 69.9; COLO 800: 93.9; C32: 97.5; COLO 792: 67.6; WM3619: 95.0
- selumetinib | WM451Lu: 92.6; COLO 829: 86.2; COLO 800: 91.4; C32: 80.1; COLO 792: 66.3; WM3619: 66.4
- ENMD-2076 | WM451Lu: 61.1; COLO 829: 77.2; COLO 800: 48.7; C32: 99.9; COLO 792: 58.9; WM3619: 108
- bortezomib | WM451Lu: 19.6; COLO 829: 8.2; COLO 800: 55.5; C32: 21.9; COLO 792: 22.4; WM3619: 5.0
- stibogluconate | WM451Lu: 93.5; COLO 829: 132; COLO 800: 119; C32: 83.8; COLO 792: 95.0; WM3619: 106
- SNS-032 | WM451Lu: 61.3; COLO 829: 76.9; COLO 800: 58.1; C32: 81.0; COLO 792: 61.3; WM3619: 75.5
- tozasertib | WM451Lu: 79.8; COLO 829: 83.0; COLO 800: 53.7; C32: 94.8; COLO 792: 60.0; WM3619: 68.0
- pioglitazone | WM451Lu: 98.2; COLO 829: 95.3; COLO 800: 75.2; C32: 102; COLO 792: 98.7; WM3619: 96.8
- GSK0660 | WM451Lu: 86.5; COLO 829: 106; COLO 800: 105; C32: 80.5; COLO 792: 81.1; WM3619: 133
- BI-D1870 | WM451Lu: 66.4; COLO 829: 90.7; COLO 800: 79.6; C32: 90.3; COLO 792: 79.9; WM3619: 113
- GSK650394 | WM451Lu: 93.2; COLO 829: 82.0; COLO 800: 105; C32: 109; COLO 792: 86.4; WM3619: 111
- CHIR-265 | WM451Lu: 60.9; COLO 829: 57.7; COLO 800: 74.5; C32: 71.7; COLO 792: 27.5; WM3619: 54.1
- embelin | WM451Lu: 101; COLO 829: 94.3; COLO 800: 76.5; C32: 97.2; COLO 792: 74.8; WM3619: 104

For reference, 2 entries once more:

Partner,WM451Lu,COLO 829,COLO 800,C32,COLO 792,WM3619
GSK0660,86.5,106,105,80.5,81.1,133
darinaparsin,75.4,69.9,93.9,97.5,67.6,95.0